No constants are given. Whether binding was seen depends on the method and setting. In cells and extracts the contact can be indirect. Some binding calls cover weakened binding; strength is not graded here. Tags and fused reporters may be left off the sequences shown.
Target: T1, FLAG-PRRT2 (proline-rich transmembrane protein 2) (UniProt E9PUL5)
T1 sequence: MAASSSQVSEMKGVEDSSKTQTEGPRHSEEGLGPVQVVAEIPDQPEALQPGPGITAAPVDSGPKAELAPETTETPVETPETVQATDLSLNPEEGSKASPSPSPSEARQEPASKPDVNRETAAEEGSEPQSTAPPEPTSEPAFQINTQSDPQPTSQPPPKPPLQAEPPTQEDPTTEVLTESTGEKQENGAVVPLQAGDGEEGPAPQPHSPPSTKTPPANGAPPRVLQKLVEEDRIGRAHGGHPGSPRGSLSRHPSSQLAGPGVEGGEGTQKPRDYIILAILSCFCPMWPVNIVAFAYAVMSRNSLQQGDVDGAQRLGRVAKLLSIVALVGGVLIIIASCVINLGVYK
Experiment: co-IP

The chains behind the UniProt entries cited, without tags or fusion partners. Residues count along the entry.
UniProt P19490, residues 19-907: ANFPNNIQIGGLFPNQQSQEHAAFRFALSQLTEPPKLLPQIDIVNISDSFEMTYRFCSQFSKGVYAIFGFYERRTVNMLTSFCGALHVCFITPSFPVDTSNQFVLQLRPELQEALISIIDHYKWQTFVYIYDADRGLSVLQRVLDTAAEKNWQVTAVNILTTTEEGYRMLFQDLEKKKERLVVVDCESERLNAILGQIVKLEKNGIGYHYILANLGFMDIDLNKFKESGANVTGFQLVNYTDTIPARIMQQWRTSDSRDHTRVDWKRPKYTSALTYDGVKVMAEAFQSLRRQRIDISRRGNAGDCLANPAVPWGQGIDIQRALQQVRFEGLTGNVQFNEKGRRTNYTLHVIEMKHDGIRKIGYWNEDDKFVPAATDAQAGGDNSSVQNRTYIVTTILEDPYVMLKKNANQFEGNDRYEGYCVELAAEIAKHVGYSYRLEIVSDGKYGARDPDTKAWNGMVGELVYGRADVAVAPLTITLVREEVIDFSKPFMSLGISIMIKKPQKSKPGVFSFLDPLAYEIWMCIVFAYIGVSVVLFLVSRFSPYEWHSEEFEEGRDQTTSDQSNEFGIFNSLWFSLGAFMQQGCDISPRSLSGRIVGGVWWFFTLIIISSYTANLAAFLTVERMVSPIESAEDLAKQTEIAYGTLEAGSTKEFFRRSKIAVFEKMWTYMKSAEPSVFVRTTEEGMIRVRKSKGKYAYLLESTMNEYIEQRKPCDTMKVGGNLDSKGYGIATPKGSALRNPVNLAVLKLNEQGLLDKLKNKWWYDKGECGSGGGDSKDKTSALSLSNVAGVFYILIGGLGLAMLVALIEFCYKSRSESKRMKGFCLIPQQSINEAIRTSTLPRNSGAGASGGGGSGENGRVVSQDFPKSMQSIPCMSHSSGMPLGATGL

AMPA receptor subunit GluA1 (overexpressed in HEK293T) (from UniProt P19490 19-907)
binding: binds

Reference: article doi:10.1101/2025.03.06.641931
